Data on three molecules can be found in PMC10849765.

By UniProt entry, the sequences of proteins in these tests, tags left out. Where a name states a change or a piece, a line headed by the entry shows the natural chain unless it says otherwise. Chains listed by the source or under a name are the forms on record and can include a tag or linker.
ARRB1-Δexon 13 (β-arrestin 1 isoform lacking exon 13) (P49407, form named): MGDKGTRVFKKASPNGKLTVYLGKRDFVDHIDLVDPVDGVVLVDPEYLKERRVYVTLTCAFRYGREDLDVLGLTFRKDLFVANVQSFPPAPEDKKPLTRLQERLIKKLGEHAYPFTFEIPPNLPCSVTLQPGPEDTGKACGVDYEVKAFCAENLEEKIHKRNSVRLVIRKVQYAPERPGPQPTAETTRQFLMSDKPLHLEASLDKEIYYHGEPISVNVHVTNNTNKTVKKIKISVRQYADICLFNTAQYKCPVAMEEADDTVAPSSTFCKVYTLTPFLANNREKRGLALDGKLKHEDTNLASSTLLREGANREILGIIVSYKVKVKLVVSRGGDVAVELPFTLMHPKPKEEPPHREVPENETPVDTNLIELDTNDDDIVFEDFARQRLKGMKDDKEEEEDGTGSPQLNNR
UniProt Q62167: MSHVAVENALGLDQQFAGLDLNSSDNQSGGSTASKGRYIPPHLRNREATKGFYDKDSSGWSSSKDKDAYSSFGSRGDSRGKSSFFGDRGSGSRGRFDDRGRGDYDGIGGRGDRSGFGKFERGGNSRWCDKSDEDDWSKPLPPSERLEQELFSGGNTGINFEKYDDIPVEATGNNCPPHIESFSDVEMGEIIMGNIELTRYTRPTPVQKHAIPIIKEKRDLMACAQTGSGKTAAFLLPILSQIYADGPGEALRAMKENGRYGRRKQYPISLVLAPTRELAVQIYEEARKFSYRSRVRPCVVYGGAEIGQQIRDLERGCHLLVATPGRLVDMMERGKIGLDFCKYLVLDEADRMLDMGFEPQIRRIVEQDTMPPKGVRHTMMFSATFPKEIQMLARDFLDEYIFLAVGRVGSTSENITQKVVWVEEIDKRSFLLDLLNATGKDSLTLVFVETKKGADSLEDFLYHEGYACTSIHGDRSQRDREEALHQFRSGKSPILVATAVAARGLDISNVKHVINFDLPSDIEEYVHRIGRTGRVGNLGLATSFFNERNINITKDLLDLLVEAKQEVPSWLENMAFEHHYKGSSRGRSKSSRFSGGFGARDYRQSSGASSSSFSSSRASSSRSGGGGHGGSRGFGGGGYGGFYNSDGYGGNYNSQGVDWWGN
UniProt P06733: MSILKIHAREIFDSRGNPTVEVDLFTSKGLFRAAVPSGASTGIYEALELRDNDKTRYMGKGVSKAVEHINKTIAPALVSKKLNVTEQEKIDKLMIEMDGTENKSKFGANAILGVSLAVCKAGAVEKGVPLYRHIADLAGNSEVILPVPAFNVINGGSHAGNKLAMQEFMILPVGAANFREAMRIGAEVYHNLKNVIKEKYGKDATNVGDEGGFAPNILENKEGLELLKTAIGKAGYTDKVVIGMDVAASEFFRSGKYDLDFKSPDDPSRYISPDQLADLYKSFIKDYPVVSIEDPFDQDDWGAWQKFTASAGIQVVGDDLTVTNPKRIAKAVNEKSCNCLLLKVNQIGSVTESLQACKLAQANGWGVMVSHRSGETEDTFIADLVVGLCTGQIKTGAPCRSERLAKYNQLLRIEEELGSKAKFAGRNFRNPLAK

These are yes or no findings as the source states them, for the method shown. In cells and extracts the contact can be indirect. A yes stands for co-enrichment or nearness to the bait. Other partners may have been found.

The target of test [1] is T1, asparagine endopeptidase (AEP), human, re-expressed in AEP-KO mouse embryonic fibroblasts (human) (UniProt Q99538).
T1 sequence: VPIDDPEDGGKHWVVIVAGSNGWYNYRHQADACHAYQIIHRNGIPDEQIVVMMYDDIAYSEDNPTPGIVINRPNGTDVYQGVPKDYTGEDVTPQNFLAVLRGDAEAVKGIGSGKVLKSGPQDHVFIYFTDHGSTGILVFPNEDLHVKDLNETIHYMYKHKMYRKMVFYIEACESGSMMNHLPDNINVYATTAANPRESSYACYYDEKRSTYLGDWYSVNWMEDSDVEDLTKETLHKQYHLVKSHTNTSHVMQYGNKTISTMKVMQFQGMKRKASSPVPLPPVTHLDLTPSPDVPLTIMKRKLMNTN
As to the kind of experiment: affinity purification with mass spectrometry; IP with an anti-AEP antibody (1:50) from lysate (IP buffer) of lgmn-KO MEFs re-expressing human LGMN; MS of the immunoprecipitate.

The target of test [2] is ARRB1-Δexon 13 (β-arrestin 1 isoform lacking exon 13) (human) (UniProt P49407). As to the kind of experiment: affinity purification with mass spectrometry; ARRB1-Δexon 13 immunoprecipitated, mass spectrum assay.

Take “DEAD-box helicase 3 X-linked (DDX3X), endogenous in mouse embryonic fibroblasts (from UniProt Q62167 1-662)”: in test [1], the binding entry is “binds”.

In the case of “ENO1 (from UniProt P06733 1-434) (enzyme)”, the binding result in test [2] was “binds”.

B1: ALDOA (enzyme, UniProt P04075 1-364)
chain: MPYQYPALTPEQKKELSDIAHRIVAPGKGILAADESTGSIAKRLQSIGTENTEENRRFYRQLLLTADDRVNPCIGGVILFHETLYQKADDGRPFPQVIKSKGGVVGIKVDKGVVPLAGTNGETTTQGLDGLSERCAQYKKDGADFAKWRCVLKIGEHTPSALAIMENANVLARYASICQQNGIVPIVEPEILPDGDHDLKRCQYVTEKVLAAVYKALSDHHIYLEGTLLKPNMVTPGHACTQKFSHEEIAMATVTALRRTVPPAVTGITFLSGGQSEEEASINLNAINKCPLLKPWALTFSYGRALQASALKAWGGKKENLKAAQEEYVKRALANSLACQGKYTPSGQAGAAASESLFVSNHAY
On to B1, for which the binding result in test [2] is on record as “binds”.
